Measured values published in patent US20250116035.
Construct, isoform or probe ends are uncertain for at least one entry. For part of these data: Negatives hold for the conditions tested. For part of these data: The direction of at least one scale is not stated here.

Assays:
[1] = tested on: immunoglobulin G (IgG), pooled; test: SELEX; settings: FRELEX enrichment in IgG selection versus buffer (counter-target), fold minus one 0.338036; single-stranded DNA
[2] = tested on: immunoglobulin G (IgG), pooled; test: SPR; settings: 5' thiol (immobilized on gold); counter-target; 250 nM IgG; aptamer described as selected to bind HSA and not IgG; single-stranded DNA
[3] = molecular target: human serum albumin (HSA) (Homo sapiens) (UniProt P02768); test: SPR; settings: 5' thiol (immobilized on gold); SPR imaging, aptamer immobilized on gold chip; HSA 100 and 250 nM; ka 2.19E5, kd 1.29E-3; single-stranded DNA

CCAGATACAGACTTGAGGTTTGAATACGAACCATCGGCGCCAACATTACATTCCCACAGATCCAGTAGACAGC [fBHSA-1 (top HSA sequence)]
binding signal [1]: 5.69 Z score

CCAGATACAGACCAGAGGCGGGAATAAGAACCATCGGCGCCAACACCACATTCATTCAGATCCAGTAGACAGC [fBHSA-6]
binding result [2]: no binding
Kd [3]: 5.89 nM
